Assay results: PubChem BioAssay AID2685 (National Center for Advancing Translational Sciences (NCATS), 2010)
Some of the results follow. These are further read-outs of the screen, such as a control signal, another cell line or another target. No call is given for them. Compounds called inactive in the main read-out are mostly missing here. Words in brackets tell the shape of the fitted curve; partial curves, single points and poor fits give uncertain potencies.

Test: qHTS Assay for Lipid Storage Modulators in Drosophila S3 Cells;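 as to cell number change: cells counted by Cell Tracker Red CMTPX staining in the red channel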
Conditions: BODIPY lipid droplet fluorescence, 18-24 h; for cell number change: measured here: cell count max response, cells fed with added oleic acid
Outline: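 Laser-scanning cytometry quantifies lipid droplet accumulation (500–530 nm total intensity; droplet/cell object ratio) in oleic acid-fed (400 uM added) Drosophila S3 cells treated with a concentration series. 20 uM Triacsin C defined 100% inhibition.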

[1] = measured here: lipid fluorescence (Fed channel) AC50, cells fed with added oleic acid
[2] = measured here: cell number channel AC50, cells fed with added oleic acid

Compound | cell number change [%] | AC50 [1] | AC50 [2]
Cc1ccc2nc(-c3cccc(NC(=O)c4ccc5c(c4)OCCO5)c3)oc2c1 | 9.91 | 11.6 µM [rising, single point] | 
O=C(O)C1CCCN1S(=O)(=O)c1cccs1 (stereo not given) | -70.6 |  | 29.1 µM [falling, single point]
CCn1c(CNC(=O)C23CC4CC(CC(C4)C2)C3)nnc1SC | 7.63 | 1.84 µM [rising, single point] | 
CCOC(=O)c1c(NC(=O)c2ccco2)sc2c1CCCC2 | 2.25 | 0.82 µM [rising, single point] | 
O=C(O)c1cccc(NC(=S)NC(=O)c2ccc(-c3ccc(Cl)cc3)o2)c1 | 8.8 | 3.26 µM [falling, single point] | 3.26 µM [falling, single point]
O=C(CSc1ccc2ccccc2n1)N/N=C/c1ccc(O)cc1 | -29.5 | 16.4 µM [falling, single point] | 
CCC(=O)Nc1c(C)c(CC)nc2ccccc12 | -51 |  | 10.3 µM [falling, partial curve]
Cc1ccc(C(=O)OCc2nc3ccsc3c(=O)[nH]2)o1 |  | 0.58 µM [rising, single point] | 
O=C(CCCOc1ccccc1)Nc1cc(S(=O)(=O)N2CCOCC2)ccc1N1CCOCC1 | 6.55 | 0.291 µM [falling, full curve, poor fit] | 
COc1ccc(CNC(=O)c2ccc(N(C)S(=O)(=O)c3ccc(C)cc3)cc2)cc1 | -24.6 |  | 
Nc1nc(CSc2ncn(-c3ccccc3)n2)cs1 | 8.43 | 1.64 µM [rising, partial curve] | 
CC(C)CCNc1nnnc2c1sc1nc(N3CCOCC3)c3c(c12)CC(C)(C)SC3 | 4.7 | 0.206 µM [rising, full curve, poor fit] | 
FC(F)Sc1ccc(NC(=S)N2CCN(c3ccccn3)CC2)cc1 | 18.1 | 1.84 µM [rising, full curve] | 
CN1CCN(NC(=O)c2ccc(Cl)s2)CC1 |  | 0.58 µM [rising, single point] | 
O=C(Nc1cc(C(F)(F)F)ccc1-n1cncn1)c1ccc(-c2ccccc2)cc1 | -18.3 | 32.6 µM [falling, single point] | 
O=C(Nc1ccc2c(c1)OCO2)c1ccc(S(=O)(=O)NCC2CCCO2)cc1 (stereo not given) | 8.2 |  | 
COc1ccc(CN2C[C@H](Cc3ccccc3)[C@@H](CC(=O)Nc3ccccc3)C2=O)cc1 | -7.19 | 0.651 µM [falling, full curve, poor fit] | 
COc1cc(/C=C/C(=O)OCC(=O)NCCc2ccc(S(N)(=O)=O)cc2)ccc1OCC#N | 27.3 |  | 
COC(=O)Cn1c(=O)c2c(nc3n2CCCN3CCc2ccc(OC)c(OC)c2)n(C)c1=O | -1.55 | 0.0082 µM [rising, full curve, poor fit] | 
O=C(NC(=S)NCCC1=CCCCC1)c1ccccc1Br | 14.8 | 5.8 µM [rising, partial curve, poor fit] | 
O=C(Cc1ccccc1)NCC(=O)OCC(=O)c1ccc(Cl)c([N+](=O)[O-])c1 | -26.4 |  | 

Compound | cell number change [%] | AC50 [1] | AC50 [2]
Cc1ccc(NCc2ccccc2F)cc1 | -5.9 | 6.51 µM [falling, single point] | 
Cc1ccc(S(=O)(=O)N2CCCC2C(=O)OCc2ccco2)cc1 (stereo not given) | 4.19 | 16.4 µM [rising, partial curve, poor fit] | 
COc1cc(O)c(CCC(=O)c2cc(OC)c(OC)c(OC)c2)c(OC)c1 | 20.8 | 20.6 µM [rising, single point] | 
Cc1ccc(C(=O)NCC(=O)NCC(=O)OCC(=O)c2ccc([N+](=O)[O-])cc2)cc1 | -6.51 |  | 
O=C(NCCCSc1ccccc1)c1cccnc1 | 14.1 | 0.103 µM [falling, full curve, poor fit] | 
CC(C)(C)n1cnc2cc(NS(=O)(=O)c3ccccc3)ccc21 | -3.03 | 2.31 µM [rising, partial curve] | 
CCCCCC(=O)NC(=S)Nc1cccc(-c2nc3ncccc3o2)c1 | 15.9 | 29.1 µM [rising, single point] | 
CN(Cc1ccccc1)c1nc2c(c(=O)[nH]c(=O)n2C)n1Cc1ccccc1 | 18.1 | 4.11 µM [rising, full curve] | 
COc1ccc(-c2nc(-c3ccccc3)c(-c3cc([N+](=O)[O-])ccc3C)[nH]2)cc1OC | 19.4 |  | 0.259 µM [rising, full curve, poor fit]
O=C(CN(C1CCCCC1)S(=O)(=O)c1ccc(Br)cc1)NCc1ccncc1 | -36.9 |  | 6.51 µM [falling, partial curve, poor fit]
COc1ccccc1NC(=O)N(Cc1cc2cc(OC)c(OC)cc2[nH]c1=O)CC1CCCO1 (stereo not given) | 18.8 | 1.46 µM [rising, full curve] | 
O=C(Nc1nnc(Cc2ccccc2)s1)c1ccco1 | -38.4 | 6.51 µM [falling, single point] | 4.61 µM [falling, full curve]
COc1cccc(NC(=O)CN(C)C(=O)CNC(=O)c2ccc(Oc3ccccc3)cc2)c1 | -6.43 |  | 
C=C(C)C1CC=C(C)/C(=N/NC(=O)c2ccc(NC(=O)CCC)cc2)C1 (stereo not given) | 30.2 |  | 29.1 µM [rising, single point]
CC(C)C(OC(=O)c1cccs1)C(=O)NCCc1ccccc1 (stereo not given) | 4.62 | 29.1 µM [rising, single point] | 
O=C(COc1ccc2c(c1)C(=O)CC1(CCCCC1)O2)NCc1ccccc1 | 16.2 |  | 
CC(C)(C)OC(=O)NN1CC(=O)N2Cc3[nH]c4ccccc4c3C[C@H]2C1=O | -36.2 |  | 20.6 µM [falling, single point]
c1ccc(CC2CNc3ccccc3CN2)cc1 (stereo not given) | 4.2 | 0.00411 µM [rising, full curve, poor fit] | 
O=C(CN1C(=O)S/C(=C/c2cccn2-c2ccc(O)cc2)C1=O)N1CCCC1 | -18.1 |  | 
CN1/C(=C\C=C(/C#N)C(=O)Nc2ccccc2F)C(C)(C)c2ccccc21 | 52.2 |  | 29.1 µM [rising, single point]
C=CCN(C(=O)CCC(=O)Nc1cc(C)on1)C(C(=O)NC1CCCC1)c1ccc(OC)c(OC)c1 (stereo not given) | -4.76 | 29.1 µM [falling, single point] | 

An excerpt from above, showing only cell number change [%]:

| Compound | cell number change [%] |
| --- | --- |
| O=C(CCCOc1ccccc1)Nc1cc(S(=O)(=O)N2CCOCC2)ccc1N1CCOCC1 | 6.55 |
| CC(C)(C)OC(=O)NN1CC(=O)N2Cc3[nH]c4ccccc4c3C[C@H]2C1=O | -36.2 |

(continued)

Compound | cell number change [%] | AC50 [1] | AC50 [2]
Nc1nnc(SCC(=O)Nc2cc(C(F)(F)F)ccc2N2CCOCC2)s1 | -79.8 | 7.31 µM [falling, partial curve] | 8.2 µM [falling, partial curve]
CCCn1c(SCC(N)=O)nnc1-c1ccco1 | -4.62 |  | 
Cc1ccc2nc(-c3ccncc3)c(NC3CCCC3)n2c1 | 70.2 | 29.1 µM [rising, single point] | 29.1 µM [rising, single point]
Nc1nc2n(n1)C(=O)CC(c1ccccc1[N+](=O)[O-])N2 (stereo not given) |  | 0.092 µM [falling, full curve, poor fit] | 2.91 µM [falling, partial curve]
N/N=C(\c1ccccc1)C12CN3CN(CN(C3)C1)C2 | 46 |  | 16.4 µM [rising, partial curve]
CC1CCCC(C)N1/N=C/c1cc(Br)cc(Br)c1O (stereo not given) | 17.5 | 2.06 µM [rising, full curve] | 
CCOC(=O)CCC(=O)O[C@H]1[C@H](O[C@@H]2[C@@H](C)[C@H](O[C@H]3C[C@@](C)(OC)[C@@H](O)[C@H](C)O3)[C@@H](C)C(=O)O[C@H](CC)[C@@](C)(O)[C@H](O)[C@@H](C)C(=O)[C@H](C)C[C@@]2(C)O)O[C@H](C)C[C@@H]1N(C)C |  | 0.461 µM [rising, full curve, poor fit] | 
O=C(/C=C/Nc1ccc([N+](=O)[O-])cc1)c1ccc(Br)cc1 | -30.4 | 1.16 µM [rising, full curve, poor fit] | 8.2 µM [falling, partial curve]
O=C(NC12CC3CC(CC(C3)C1)C2)c1cccc(OC(F)F)c1 | -31.3 | 16.4 µM [falling, partial curve, poor fit] | 9.2 µM [falling, single point]
Clc1ccc(SCCCCN2CCNCC2)cc1 | -0.402 |  | 
COC(=O)c1cc(Cl)c(NC(=O)c2ccc(F)cc2)cc1OC | -19.9 |  | 
Cc1cc(-c2ccccc2)c(C#N)c(=S)[nH]1 | -22.9 |  | 0.411 µM [rising, full curve]
N#Cc1cc2c(N)c(C(=O)Nc3ccccc3)sc2nc1N | 24.9 | 0.259 µM [rising, full curve] | 0.259 µM [rising, full curve, poor fit]
O=C(/C=C/c1ccccc1)Nc1ccc2c(c1)C(=O)NC2=O | 13.8 | 0.206 µM [rising, full curve] | 
CCCC(C)C(=O)Nc1ccc(Cl)cc1Cl (stereo not given) | 4.04 | 16.4 µM [rising, single point] | 
O=C(COc1cc(Cl)ccc1Cl)Nc1ccc2[nH]c(=O)[nH]c2c1 | -3 |  | 
CC(=O)c1cnc(-c2cccc(Cl)c2)s1 | -17.1 | 0.651 µM [falling, partial curve, poor fit] | 
O=C(Nc1cccc2c1C(=O)NC2=O)c1cccc(N2C(=O)CCC2=O)c1 | -31.4 | 0.00651 µM [falling, full curve, poor fit] | 6.51 µM [falling, single point]
O=C(c1cc(-c2ccc(Cl)c(Cl)c2)on1)N1CCOCC1 | 17.5 | 29.1 µM [rising, single point] | 
